Patent US20250179186A1 (REGENTS OF THE UNIVERSITY OF MINNESOTA, published 2025)
Positions count from the first letter of the chain named. No constants are given. Whether binding was seen depends on the method and setting. Some binding calls cover weakened binding; strength is not graded here.

The chains behind the UniProt entries cited, without tags or fusion partners. Residues count along the entry.
UniProt Q5ZPR3, residues 29-534: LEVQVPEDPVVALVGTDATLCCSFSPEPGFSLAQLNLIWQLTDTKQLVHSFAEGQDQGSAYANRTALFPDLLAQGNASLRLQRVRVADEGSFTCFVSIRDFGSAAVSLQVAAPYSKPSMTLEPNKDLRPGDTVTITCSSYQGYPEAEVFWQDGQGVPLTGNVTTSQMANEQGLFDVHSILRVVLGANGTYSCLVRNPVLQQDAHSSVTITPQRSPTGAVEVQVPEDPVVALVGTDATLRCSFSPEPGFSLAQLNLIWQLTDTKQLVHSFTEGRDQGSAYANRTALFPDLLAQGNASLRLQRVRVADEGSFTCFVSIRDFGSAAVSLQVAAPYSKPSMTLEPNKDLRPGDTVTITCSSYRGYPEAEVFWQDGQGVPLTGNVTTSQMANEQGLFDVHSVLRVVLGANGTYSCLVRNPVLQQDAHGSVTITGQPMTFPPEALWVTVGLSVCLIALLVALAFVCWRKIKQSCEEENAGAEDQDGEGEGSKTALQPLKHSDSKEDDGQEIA

B1: Gp2 1.4.3 (designed binder)
chain: KFWATVQHVYSDFGFEVPVYAATLDEALQLAEVRYANSIFMVTRVRPHHHHHH
notes: Purified from E. coli (pET-24b, NheI/BamHI cloning)
B2: Gp2 1.4.4 (designed binder)
chain: B1 chain with V17A, R34Q, M41T
notes: as for B1

Tests used:
[1] = molecular target: human B7-H3 expressed by Mile Sven 1 cells stably transfected to express human B7-H3 (MS1-B7-H3) (human) (UniProt Q5ZPR3); assay: clone sequenced from the yeast-display population selected by FACS on MS1-B7-H3 cell lysate (yeast-displayed form, not the purified His6 protein)
[2] = molecular target: human B7-H3 expressed by Mile Sven 1 cells stably transfected to express human B7-H3 (MS1-B7-H3) (human) (UniProt Q5ZPR3); assay: flow cytometry on MS1-B7-H3 cells
[3] = molecular target: human B7-H3 expressed by Mile Sven 1 cells stably transfected to express human B7-H3 (MS1-B7-H3) (human) (UniProt Q5ZPR3); assay: clone sequenced from the yeast-display population selected by FACS on MS1-B7-H3 cell lysate

binding [1]	binding [2]	binding [3]	Binder
binds	binds		B1
binds	binds		B2
		binds	KFWATVQHVYSDFGFEAPVYAATLDEALQLAEVQYANSIFMVTRVRP (designed binder) [Gp2 1.4.1]
		binds	KFWATVQHVYSDFGFEAPVYAATLDEALQLAEVQYANSIFMVARVRP (designed binder) [Gp2 1.4.2]
